Our source for the binding values is PMC6356071.

No constants are given. Whether binding was seen depends on the method and setting. Some results given as binding are weak or reduced against the parent protein; the word gives no strength.

For the assay, the target named is Dipeptidase 3 (human (endogenous in spermatozoa)) (UniProt Q9H4B8). Nature of the assay: SDS-PAGE and Western blot; 20 ug total protein of WT and rs35033974 homozygous spermatozoa lysate on 4-15% SDS-PAGE, PVDF, rabbit polyclonal anti-DPEP3; bands at 75 kDa (monomers) and 150 kDa (dimers). (In general: A western blot detects proteins with antibodies after separation by electrophoresis.)

B1: Dipeptidase 3 (protein, UniProt Q9H4B8 36-463)
chain: AETTPGAPRALSTLGSPSLFTTPGVPSALTTPGLTTPGTPKTLDLRGRAQALMRSFPLVDGHNDLPQVLRQRYKNVLQDVNLRNFSHGQTSLDRLRDGLVGAQFWSASVSCQSQDQTAVRLALEQIDLIHRMCASYSELELVTSAEGLNSSQKLACLIGVEGGHSLDSSLSVLRSFYVLGVRYLTLTFTCSTPWAESSTKFRHHMYTNVSGLTSFGEKVVEELNRLGMMIDLSYASDTLIRRVLEVSQAPVIFSHSAARAVCDNLLNVPDDILQLLKKNGGIVMVTLSMGVLQCNLLANVSTVADHFDHIRAVIGSEFIGIGGNYDGTGRFPQGLEDVSTYPVLIEELLSRSWSEEELQGVLRGNLLRVFRQVEKVREESRAQSPVEAEFPYGQLSTSCHSHLVPQNGHQATHLEVTKQPTNRVPWRS
For the molecule B1, the binding result was “binds”.
